Earlier results on 2 compounds are cited in patent US8609666B2, “2-morpholino-pyrido[3,2-D]pyrimidines” (Merck Serono SA, priority 2009, dated 2013).

The test system of this series is Class I PI3-kinases. The note with it: Fruman et al., 1998, cited from earlier work.

Read-outs that look alike come from different tables or passages of the source.

Turning to `O=c1cc(N2CCOCC2)oc2c(-c3ccccc3)cccc12` [LY294002], the half-maximal inhibitory concentration (IC50) (commonly the concentration at which inhibition is half-maximal) (read-out: IC50 against each of the Class I PI3-kinases) is 15 to 20 µM.
For `COC[C@H]1OC(=O)c2coc3c2[C@@]1(C)C1=C(C3=O)[C@@H]2CCC(=O)[C@@]2(C)C[C@H]1OC(C)=O` [Wortmannin], the IC50 (read-out: IC50 against each of the various Class I PI3-kinases) is 0.001 to 0.01 µM.
